From patent publication US11842798B2, “Natural product and genetic data analysis and discovery system, method and computational platform therefor” (priority 2015, dated 2023)

Test system: Bacillus subtilis 168
Assay: Fluorescence microscopy, probe localization
Type: cell-based
Conditions: live B. subtilis

For “N-carboxyfluorescein telomycin [fluorescein-labelled telomycin conjugate]”, the “localization in bacterial cells” value was “localizes to poles and septa” and the “localization in bacterial cells” value (listed as fluorescent conjugate of telomycin) was “accumulated at poles and septa”.
